This is an account of results in article PMC9537338.

Protein sequences, listed by entry. Tags and fused reporters are not part of them.
UniProt Q13485: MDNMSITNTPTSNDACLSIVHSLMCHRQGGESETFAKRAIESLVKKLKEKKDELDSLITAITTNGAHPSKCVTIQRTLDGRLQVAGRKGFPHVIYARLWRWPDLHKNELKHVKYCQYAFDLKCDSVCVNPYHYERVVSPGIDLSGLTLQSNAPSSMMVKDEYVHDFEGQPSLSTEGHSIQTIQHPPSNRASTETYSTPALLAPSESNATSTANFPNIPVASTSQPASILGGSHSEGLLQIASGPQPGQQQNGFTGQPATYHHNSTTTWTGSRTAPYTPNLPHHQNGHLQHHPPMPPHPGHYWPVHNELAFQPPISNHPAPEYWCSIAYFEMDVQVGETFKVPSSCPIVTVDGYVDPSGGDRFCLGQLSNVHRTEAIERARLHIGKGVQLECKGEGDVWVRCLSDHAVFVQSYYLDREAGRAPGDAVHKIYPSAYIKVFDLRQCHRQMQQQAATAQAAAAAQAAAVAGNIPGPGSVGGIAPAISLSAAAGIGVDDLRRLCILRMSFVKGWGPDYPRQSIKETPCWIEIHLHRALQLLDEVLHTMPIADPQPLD
UniProt Q15797: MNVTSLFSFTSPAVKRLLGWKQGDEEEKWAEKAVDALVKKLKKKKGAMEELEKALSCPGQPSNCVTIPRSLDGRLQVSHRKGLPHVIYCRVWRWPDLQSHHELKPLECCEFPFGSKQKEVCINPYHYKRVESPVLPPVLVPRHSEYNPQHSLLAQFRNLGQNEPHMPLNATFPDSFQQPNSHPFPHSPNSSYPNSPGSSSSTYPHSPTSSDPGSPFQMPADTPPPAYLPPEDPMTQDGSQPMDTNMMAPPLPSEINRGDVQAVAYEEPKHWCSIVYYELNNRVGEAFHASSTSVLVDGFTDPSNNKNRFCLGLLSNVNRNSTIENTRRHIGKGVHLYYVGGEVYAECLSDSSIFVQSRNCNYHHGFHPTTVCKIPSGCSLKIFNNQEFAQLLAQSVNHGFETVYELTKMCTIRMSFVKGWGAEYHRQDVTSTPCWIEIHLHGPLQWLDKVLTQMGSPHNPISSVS
UniProt Q99717: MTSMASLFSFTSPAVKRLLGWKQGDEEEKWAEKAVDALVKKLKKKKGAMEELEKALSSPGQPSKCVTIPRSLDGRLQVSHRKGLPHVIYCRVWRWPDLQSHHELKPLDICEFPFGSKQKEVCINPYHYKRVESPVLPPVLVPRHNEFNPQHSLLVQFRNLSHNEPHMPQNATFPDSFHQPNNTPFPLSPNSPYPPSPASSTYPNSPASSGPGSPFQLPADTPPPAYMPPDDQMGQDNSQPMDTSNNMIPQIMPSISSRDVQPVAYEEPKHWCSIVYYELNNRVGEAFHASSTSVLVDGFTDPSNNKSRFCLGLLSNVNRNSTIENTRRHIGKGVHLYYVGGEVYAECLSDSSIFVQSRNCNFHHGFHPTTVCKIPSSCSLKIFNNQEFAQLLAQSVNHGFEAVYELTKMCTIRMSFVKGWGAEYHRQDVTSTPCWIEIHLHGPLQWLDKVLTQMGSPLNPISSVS

In the experiment the target is SMAD4 (human (endogenous in HUVEC)) (UniProt Q13485). Briefly: co-IP; SMAD4 complexes isolated with the Pierce Co-Immunoprecipitation Kit from HUVEC-FUCCI sorted into early G1 or late G1 and treated with control, TGF-β1 (1 ng/mL) or BMP4 (5 ng/mL) for 2 h; Western blot for SMAD proteins.

No constants are given. Whether binding was seen depends on the method and setting. Binding seen in cells or lysates may run through a third protein. Some results given as binding are weak or reduced against the parent protein; the word gives no strength.

Turning to SMAD1 (from UniProt Q15797 1-465), the binding result was “binds”.
The value for SMAD5 (from UniProt Q99717 1-465) was “binds”.
